According to article PMC2925374, “Oligomerization of Uukuniemi virus nucleocapsid protein” (Virology Journal, 2010):
Like-named read-outs stand apart in the source and are kept apart here. These are yes or no findings as the source states them, for the method shown. For part of these data: In cells and extracts the contact can be indirect. Some entries that bind do so weakly or less than the wild type. For part of these data: Where a sequence is shown, tags or fusion partners need not be part of it.

Tests used:
[1] = molecular target: T1, Uukuniemi virus nucleocapsid (N) protein, full length, mammalian two-hybrid fusions (pM-UUKV-N and pVP-UUKV-N) (Uukuniemi virus) (UniProt P22025); assay: two-hybrid; mammalian two-hybrid in HeLa cells: GAL4 DNA-BD (pM) and VP16 DNA-AD (pVP) fusions, pG5luc firefly luciferase normalised to Renilla luciferase, 24 h post-transfection; percent of the wt N-N interaction
T1 sequence: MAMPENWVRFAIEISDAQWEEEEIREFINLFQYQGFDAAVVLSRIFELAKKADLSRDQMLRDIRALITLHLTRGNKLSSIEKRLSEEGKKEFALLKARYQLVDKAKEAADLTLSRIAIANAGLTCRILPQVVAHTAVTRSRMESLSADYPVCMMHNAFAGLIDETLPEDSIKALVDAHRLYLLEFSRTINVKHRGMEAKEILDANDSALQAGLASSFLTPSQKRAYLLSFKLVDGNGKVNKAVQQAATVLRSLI

[2] = molecular target: T1, Uukuniemi virus nucleocapsid (N) protein, full length, mammalian two-hybrid fusions (pM-UUKV-N and pVP-UUKV-N) (Uukuniemi virus); assay: as above; remark: listed apart in the source
[3] = molecular target: Uukuniemi virus nucleocapsid (N) protein, full-length wild type (pcDNA-UUKV-N) (Uukuniemi virus) (UniProt P22025); assay: cross-linking; data not shown; BS3 cross-linking of lysates of COS-7 cells transfected with wt or mutant pcDNA-UUKV-N constructs

With “UUKV-N protein deletion mutant ΔN34, mammalian two-hybrid fusion (from UniProt P22025 35-254) (domain or fragment)” the binding [1] was “no binding”.

B1: Uukuniemi virus nucleocapsid (N) protein, full length, mammalian two-hybrid fusions (pM-UUKV-N and pVP-UUKV-N) (protein, UniProt P22025 1-254)
chain: T1 sequence
B1 was tested, and the binding [2] was “binds”.

B2: Uukuniemi virus nucleocapsid (N) protein, full-length wild type (pcDNA-UUKV-N) (natural protein)
chain: T1 sequence
notes: Uukuniemi virus nucleocapsid (N) protein, 254 aa residues; No tag is mentioned; detected with a rabbit antiserum against UUKV-N; also called UUKV-N protein; wt N protein; source: COS-7, transfected (pcDNA-UUKV-N), in lysate
B2 was tested, and the binding [3] was “binds”.
